According to the supplement of paper PMC10849652:
This is one part of the list.

By UniProt entry, the sequences of proteins in these tests, tags left out. Where a name states a change or a piece, a line headed by the entry shows the natural chain unless it says otherwise.
UniProt Q6ZVM7: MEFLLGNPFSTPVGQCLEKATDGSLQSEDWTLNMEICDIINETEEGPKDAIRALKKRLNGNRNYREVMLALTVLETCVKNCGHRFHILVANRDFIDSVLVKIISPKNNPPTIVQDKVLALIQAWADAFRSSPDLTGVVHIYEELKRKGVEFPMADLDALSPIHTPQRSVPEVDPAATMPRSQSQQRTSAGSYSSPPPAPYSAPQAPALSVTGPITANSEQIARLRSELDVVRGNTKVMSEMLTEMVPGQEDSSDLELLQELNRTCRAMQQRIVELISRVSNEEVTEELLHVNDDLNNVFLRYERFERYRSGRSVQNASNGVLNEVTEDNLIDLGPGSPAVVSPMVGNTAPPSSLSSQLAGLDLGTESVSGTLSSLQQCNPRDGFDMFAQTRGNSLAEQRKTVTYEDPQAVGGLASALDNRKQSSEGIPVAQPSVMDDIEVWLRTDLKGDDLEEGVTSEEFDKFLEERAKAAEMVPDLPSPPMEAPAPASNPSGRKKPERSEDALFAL
UniProt Q92574: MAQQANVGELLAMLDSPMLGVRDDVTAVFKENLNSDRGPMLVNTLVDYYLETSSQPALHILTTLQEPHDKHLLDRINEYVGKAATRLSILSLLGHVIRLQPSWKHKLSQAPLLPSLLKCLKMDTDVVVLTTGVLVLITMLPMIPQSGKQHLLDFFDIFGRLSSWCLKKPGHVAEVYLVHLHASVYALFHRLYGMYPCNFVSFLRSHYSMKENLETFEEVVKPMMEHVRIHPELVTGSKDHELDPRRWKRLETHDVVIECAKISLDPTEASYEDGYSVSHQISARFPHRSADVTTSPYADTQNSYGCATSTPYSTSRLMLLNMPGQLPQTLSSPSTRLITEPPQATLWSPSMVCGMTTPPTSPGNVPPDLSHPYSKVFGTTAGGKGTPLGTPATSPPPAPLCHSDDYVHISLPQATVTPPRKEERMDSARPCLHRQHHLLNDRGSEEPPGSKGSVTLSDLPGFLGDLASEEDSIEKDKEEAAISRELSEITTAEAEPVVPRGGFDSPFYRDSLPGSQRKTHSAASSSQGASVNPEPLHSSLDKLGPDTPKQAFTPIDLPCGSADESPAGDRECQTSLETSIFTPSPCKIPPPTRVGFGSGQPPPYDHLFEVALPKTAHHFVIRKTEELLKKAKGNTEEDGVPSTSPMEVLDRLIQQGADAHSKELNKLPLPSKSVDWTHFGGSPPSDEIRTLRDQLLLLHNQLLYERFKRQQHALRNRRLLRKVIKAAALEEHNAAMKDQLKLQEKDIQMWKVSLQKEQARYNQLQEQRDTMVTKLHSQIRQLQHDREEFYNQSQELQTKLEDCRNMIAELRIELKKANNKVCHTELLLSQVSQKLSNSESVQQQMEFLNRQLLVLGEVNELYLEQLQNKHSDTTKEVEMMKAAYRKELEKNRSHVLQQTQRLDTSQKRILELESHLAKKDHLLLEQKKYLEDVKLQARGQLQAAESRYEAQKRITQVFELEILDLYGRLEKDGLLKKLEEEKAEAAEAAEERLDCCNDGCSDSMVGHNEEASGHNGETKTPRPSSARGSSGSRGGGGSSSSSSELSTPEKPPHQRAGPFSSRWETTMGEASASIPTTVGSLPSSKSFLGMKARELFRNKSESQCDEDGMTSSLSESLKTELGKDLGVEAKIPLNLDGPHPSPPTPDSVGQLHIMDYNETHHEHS
UniProt Q86W33: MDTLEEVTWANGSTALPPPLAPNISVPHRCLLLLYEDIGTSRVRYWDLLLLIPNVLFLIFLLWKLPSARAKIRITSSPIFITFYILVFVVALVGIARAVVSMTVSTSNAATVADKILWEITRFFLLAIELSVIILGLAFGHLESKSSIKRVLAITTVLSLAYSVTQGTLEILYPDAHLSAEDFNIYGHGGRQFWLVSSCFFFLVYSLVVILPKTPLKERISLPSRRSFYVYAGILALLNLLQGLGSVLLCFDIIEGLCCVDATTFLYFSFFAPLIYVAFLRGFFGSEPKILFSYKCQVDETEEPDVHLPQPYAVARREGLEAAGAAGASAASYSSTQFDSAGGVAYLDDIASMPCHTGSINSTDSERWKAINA
UniProt Q8WV44: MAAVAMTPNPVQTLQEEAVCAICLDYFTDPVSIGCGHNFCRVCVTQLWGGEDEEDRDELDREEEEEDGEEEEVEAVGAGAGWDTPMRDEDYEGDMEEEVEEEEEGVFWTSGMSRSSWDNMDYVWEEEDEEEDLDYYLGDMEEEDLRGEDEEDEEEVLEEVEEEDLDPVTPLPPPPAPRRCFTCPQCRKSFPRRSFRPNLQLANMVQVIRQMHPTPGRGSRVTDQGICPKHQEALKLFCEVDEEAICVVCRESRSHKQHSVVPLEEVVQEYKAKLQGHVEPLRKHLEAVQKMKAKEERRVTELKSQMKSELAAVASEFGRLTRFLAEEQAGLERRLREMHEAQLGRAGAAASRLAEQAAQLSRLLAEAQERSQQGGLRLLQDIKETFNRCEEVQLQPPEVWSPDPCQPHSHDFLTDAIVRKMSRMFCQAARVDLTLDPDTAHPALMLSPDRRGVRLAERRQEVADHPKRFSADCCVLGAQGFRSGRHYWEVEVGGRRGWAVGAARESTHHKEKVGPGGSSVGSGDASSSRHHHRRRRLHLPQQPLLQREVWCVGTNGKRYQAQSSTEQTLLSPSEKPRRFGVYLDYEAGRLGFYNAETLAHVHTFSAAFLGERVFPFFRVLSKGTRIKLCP
UniProt P67936, whole entry, looked up: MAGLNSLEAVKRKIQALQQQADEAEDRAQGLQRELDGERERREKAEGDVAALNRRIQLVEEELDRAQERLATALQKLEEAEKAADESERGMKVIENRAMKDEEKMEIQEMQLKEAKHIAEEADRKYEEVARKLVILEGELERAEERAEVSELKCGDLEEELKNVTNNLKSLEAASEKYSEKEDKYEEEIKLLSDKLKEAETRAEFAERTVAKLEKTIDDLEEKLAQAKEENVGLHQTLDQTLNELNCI
UniProt O00635: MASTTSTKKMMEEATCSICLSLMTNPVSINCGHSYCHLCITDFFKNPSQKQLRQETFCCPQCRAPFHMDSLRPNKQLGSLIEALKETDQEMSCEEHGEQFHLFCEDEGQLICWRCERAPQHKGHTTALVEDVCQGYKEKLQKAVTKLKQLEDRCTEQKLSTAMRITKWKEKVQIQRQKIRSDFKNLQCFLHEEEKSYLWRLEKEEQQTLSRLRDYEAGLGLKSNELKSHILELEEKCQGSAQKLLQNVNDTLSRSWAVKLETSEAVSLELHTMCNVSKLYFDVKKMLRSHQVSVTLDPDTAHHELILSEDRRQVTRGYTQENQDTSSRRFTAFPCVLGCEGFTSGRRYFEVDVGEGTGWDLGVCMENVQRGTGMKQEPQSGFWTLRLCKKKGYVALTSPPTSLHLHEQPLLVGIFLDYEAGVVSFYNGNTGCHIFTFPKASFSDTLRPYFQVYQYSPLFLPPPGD
UniProt Q13595: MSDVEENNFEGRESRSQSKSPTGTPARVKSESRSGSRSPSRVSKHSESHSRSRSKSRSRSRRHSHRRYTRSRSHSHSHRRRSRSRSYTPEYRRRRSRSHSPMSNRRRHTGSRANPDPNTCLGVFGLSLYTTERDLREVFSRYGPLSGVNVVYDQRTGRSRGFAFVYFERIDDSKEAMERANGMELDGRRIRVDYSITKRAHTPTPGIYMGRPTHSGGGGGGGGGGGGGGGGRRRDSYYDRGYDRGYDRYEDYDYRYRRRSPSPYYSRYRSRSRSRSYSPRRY
UniProt Q9P0U1: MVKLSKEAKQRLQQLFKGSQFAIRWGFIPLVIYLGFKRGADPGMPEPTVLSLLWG
UniProt Q5JTV8: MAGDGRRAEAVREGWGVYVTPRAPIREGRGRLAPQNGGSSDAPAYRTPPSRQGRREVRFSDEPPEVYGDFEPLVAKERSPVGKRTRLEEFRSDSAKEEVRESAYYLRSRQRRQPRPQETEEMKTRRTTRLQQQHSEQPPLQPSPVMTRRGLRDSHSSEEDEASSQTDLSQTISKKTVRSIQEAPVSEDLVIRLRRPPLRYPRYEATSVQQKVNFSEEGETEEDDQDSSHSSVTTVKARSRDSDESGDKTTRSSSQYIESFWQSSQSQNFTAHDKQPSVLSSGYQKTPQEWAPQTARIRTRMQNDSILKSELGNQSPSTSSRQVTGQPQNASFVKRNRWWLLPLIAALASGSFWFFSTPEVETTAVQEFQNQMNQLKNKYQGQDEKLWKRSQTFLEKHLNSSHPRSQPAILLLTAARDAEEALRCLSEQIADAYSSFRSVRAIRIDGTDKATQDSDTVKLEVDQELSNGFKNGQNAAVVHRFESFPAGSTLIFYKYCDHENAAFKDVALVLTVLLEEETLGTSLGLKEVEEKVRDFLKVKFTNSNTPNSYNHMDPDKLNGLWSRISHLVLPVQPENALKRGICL
UniProt Q14669: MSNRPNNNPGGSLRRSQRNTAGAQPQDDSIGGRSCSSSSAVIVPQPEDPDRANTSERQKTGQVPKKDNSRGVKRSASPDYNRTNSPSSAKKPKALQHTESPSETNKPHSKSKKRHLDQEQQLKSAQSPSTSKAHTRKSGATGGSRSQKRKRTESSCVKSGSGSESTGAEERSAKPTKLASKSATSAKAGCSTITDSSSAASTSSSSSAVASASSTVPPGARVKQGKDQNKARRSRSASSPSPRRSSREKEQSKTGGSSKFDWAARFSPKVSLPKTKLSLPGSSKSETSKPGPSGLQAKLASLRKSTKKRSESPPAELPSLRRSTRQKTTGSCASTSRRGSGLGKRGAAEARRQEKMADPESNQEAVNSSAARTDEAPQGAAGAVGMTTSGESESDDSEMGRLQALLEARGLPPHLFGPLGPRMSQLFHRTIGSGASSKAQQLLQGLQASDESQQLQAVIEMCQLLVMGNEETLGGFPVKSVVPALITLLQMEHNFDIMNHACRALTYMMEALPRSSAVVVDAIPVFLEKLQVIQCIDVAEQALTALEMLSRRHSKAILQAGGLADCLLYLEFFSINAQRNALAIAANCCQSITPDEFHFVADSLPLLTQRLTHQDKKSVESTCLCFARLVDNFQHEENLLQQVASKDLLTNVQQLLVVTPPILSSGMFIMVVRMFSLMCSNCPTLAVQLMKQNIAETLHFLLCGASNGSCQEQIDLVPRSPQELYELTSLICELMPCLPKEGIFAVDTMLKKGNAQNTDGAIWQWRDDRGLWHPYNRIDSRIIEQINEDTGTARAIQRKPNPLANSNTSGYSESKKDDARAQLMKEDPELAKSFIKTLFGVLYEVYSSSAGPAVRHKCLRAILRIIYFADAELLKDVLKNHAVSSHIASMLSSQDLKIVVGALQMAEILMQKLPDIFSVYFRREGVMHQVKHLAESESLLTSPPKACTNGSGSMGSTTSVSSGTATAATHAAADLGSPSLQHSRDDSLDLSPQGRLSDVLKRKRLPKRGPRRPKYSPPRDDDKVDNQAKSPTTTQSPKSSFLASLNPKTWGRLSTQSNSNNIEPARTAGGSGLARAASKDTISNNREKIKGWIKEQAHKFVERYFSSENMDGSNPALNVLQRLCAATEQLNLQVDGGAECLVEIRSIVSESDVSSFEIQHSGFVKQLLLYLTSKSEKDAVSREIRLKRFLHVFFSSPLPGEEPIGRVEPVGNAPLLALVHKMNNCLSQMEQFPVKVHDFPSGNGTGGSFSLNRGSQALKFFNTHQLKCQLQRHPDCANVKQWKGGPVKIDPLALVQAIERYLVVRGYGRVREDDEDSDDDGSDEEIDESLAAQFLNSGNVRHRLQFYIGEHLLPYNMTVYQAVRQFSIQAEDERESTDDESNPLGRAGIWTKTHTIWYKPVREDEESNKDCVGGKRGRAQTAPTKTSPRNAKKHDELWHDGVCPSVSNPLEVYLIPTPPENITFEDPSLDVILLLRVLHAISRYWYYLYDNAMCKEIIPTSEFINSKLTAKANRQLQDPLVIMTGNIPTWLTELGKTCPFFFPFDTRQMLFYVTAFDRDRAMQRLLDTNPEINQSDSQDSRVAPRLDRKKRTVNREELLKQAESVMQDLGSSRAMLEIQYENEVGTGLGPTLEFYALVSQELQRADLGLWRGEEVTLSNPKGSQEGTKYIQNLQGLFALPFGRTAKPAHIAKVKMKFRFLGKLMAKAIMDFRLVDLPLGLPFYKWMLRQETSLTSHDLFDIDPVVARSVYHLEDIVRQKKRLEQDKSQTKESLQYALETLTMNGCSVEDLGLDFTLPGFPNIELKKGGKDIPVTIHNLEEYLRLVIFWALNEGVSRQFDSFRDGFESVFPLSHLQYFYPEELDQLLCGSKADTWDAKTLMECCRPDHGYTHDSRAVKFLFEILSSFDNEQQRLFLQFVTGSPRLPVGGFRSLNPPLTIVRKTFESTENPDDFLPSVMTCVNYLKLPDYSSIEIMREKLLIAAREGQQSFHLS

Columns and labels:
Test in all cases: log2 fold change, soluble protein after heating vs DMSO (PISA); higher = thermal stabilisation; K562 cells, 10 uM, 30 min; active = over 0.2 and 3.5 SD of the protein, either way, in both replicates (recomputed)
[1] = compound: C1=CC=C(C=C1)[C@H](COC2=CC3=C(C=C2)NC(=O)N3)NC(=O)C4=CC=CN(C4=O)CC5=CC(=C(C=C5)F)F
Procedure, shortened: (§1)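 K562 cells at 2×10^6 cells/mL were treated with 10 μM compound for 30 min. Aliquots were heated for 3 min across 48°C-58°C, pooled, and extracted in PBS with 0.5% NP-40 at 4°C; soluble protein was the supernatant after 21,000xg for 90 min. Soluble protein was quantified by TMTpro 16plex LC-MS/MS with channel sums equalised, and reported as log2 fold change in thermal stability against DMSO controls, with values from duplicates.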

[2] = compound: CC1=C(SC2=C1C(=N[C@H](C3=NN=C(N32)C)CC(=O)N)C4=CC=C(C=C4)Cl)C
Procedure, shortened: as §1

[3] = compound: CC1=C2C(=CC=C1)N=C(N(C2=O)C3=CC=CC=C3C)CN4C=NC5=C(N=CN=C54)N
Procedure, shortened: as §1

[4] = compound: Cc1sc2c(c1C)C(c1ccc(Cl)cc1)=N[C@@H](CC(=O)OC(C)(C)C)c1nnc(C)n1-2
Procedure, shortened: as §1

[5] = compound: c1ccc([C@@H]2C[C@H]2NC2CCNCC2)cc1
Procedure, shortened: as §1

Measured: log2 fold change

TP53BP1 isoform 2 (UniProt Q12888)
inactive: [1] -0.025 | [2] -0.016 | [3] 0.025 | [4] 0.001 | [5] 0.032

TRIT1 (UniProt Q9H3H1)
inactive: [2] 0.141 | [5] 0.058

TPRG1L (UniProt Q5T0D9)
inactive: [4] -0.174

TOM1L2 (UniProt Q6ZVM7)
inactive: [2] 0.138 | [3] 0.101 | [5] -0.001

TSC1 (UniProt Q92574)
inactive: [2] -0.098 | [3] 0.152 | [4] -0.04 | [5] -0.021

TRMU (UniProt O75648)
inactive: [1] -0.021 | [2] 0.102 | [3] 0.09 | [4] 0.027 | [5] -0.011

TPRA1 (UniProt Q86W33)
inactive: [3] 0.039

TRIM41 (UniProt Q8WV44)
inactive: [3] -0.005

TNIP1 (UniProt Q15025)
inactive: [1] 0.062 | [4] 0.009

TRPS1 isoform 2 (UniProt Q9UHF7)
inactive: [2] -0.114 | [5] -0.226

TPM4 isoform 2 (UniProt P67936)
inactive: [1] -0.024 | [2] -0.048 | [3] -0.196 | [4] -0.028 | [5] 0.018

TNRC6B (UniProt Q9UPQ9)
inactive: [1] 0.202 | [2] -0.057 | [4] 0.013 | [5] 0.013

TRAF3IP1 (UniProt Q8TDR0)
inactive: [2] 0.063 | [3] -0.147 | [5] -0.078

TRIM38 (UniProt O00635)
inactive: [1] 0.105 | [2] 0.084 | [3] 0.201 | [5] 0.065

TRA2A (UniProt Q13595)
inactive: [1] -0.204 | [4] 0.087

TOMM7 (UniProt Q9P0U1)
inactive: [1] 0.03 | [3] 0.08 | [4] -0.046

TRMT5 (UniProt Q32P41)
inactive: [1] 0.039 | [3] 0.16 | [4] -0.092

TRIP11 (UniProt Q15643)
inactive: [1] -0.08 | [3] -0.001 | [4] 0.112

TRAP1 (UniProt Q12931)
inactive: [1] 0.035 | [2] 0.01 | [3] -0.024 | [4] -0.037 | [5] 0.017

TOR1AIP1 (UniProt Q5JTV8)
inactive: [1] 0.024 | [2] 0.067 | [5] -0.044

Two neighbouring entries out of the list so far:
TRAF3IP1 (UniProt Q8TDR0)
inactive: [2] 0.063 | [3] -0.147 | [5] -0.078

TRIM38 (UniProt O00635)
inactive: [1] 0.105 | [2] 0.084 | [3] 0.201 | [5] 0.065

Continuation.

TRIP12 isoform 3 (UniProt Q14669)
inactive: [1] -0.013 | [3] 0.056 | [4] 0.106

TRIO (UniProt O75962)
inactive: [1] -0.065 | [4] -0.119
